Experimental data: publication PMC11711466
For at least one entry, the source does not settle the construct or the ends of the probe. For some assays here: A negative result means that nothing was seen under these conditions. For some assays here: Weaker means in comparison with the reference protein, sequence or condition of that experiment.

Legend:
hORC1-5 + hORC6 = assay: pull-down via Strep-hORC1; details: ORC6 not retained with ORC1-5 in presence of DNA; 25 mM HEPES-KOH pH 7.5, 250 mM KGlu, 1 mM DTT, 4 mM MgOAc, 0.1% Triton X-100, 1 mM ATP or ATPgS, 30 C; high-salt wash adds 300 mM NaCl; in-solution: HEPES-NaOH; recombinant protein
hMCM2-7 (human) = assay: negative stain EM, in-solution loading; details: double hexamers, loaded without ORC6, ATP; 25 mM HEPES-KOH pH 7.5, 250 mM KGlu, 1 mM DTT, 4 mM MgOAc, 0.1% Triton X-100, 1 mM ATP or ATPgS, 30 C; high-salt wash adds 300 mM NaCl; in-solution: HEPES-NaOH; recombinant protein; protein details: N-terminal Twin-Strep MCM2, N-terminal 8xHis MCM4; label: 5' biotin on both oligos as listed

| Sequence | binding result (hORC1-5 + hORC6) | binding result (hMCM2-7 (human)) |
| --- | --- | --- |
| GTTATTTTACAGATTTTATGTTTAGATCTTTTATGCTTGCTTTTCAAAAGGCCTGCAGGCAAGTGCACAAACAATACTTAAATAAATACTA (double strand) [90 bp ARS1] | no binding | – |
| GCCTGCCGCGCATGCGCACGAGGCACCCGGCGCGTCTATACAGCGTGTTGCCGCCGGGGCGGAGCCCGGTCGCATCACGTGACGAAGAGTCAGCTTGTGCAACAGCGTCGGAGGCTCACTAGAAAAAAAAGGGCAGGGTCCCATGCATCGCCTGGGTC (double strand) [158 bp lamin B2] | – | binds more weakly |
